Data: PMC11900566

B1: AtSET-CLUC (domain or fragment, UniProt Q9C5X4 898-1016)
chain: KRLAFGKSGIHGFGIFAKLPHRAGDMMIEYTGELVRPSIADKREQLIYNSMVGAGTYMFRIDDERVIDATRTGSIAHLINHSCVPNCYSRVITVNGDEHIIIFAKRHIPKWEELTYDYR
B2: GST-AtSET (domain or fragment, UniProt Q9C5X4 898-1016)
chain: B1 chain
B3: GST-AtALKBH10B (enzyme, UniProt Q9ZT92 1-569)
chain: MTIAAAPARQTDRSATGFNPAYVTTAKAVSVPVQVPPATVVSEGLGKDALISWFRGEFAAANAIIDAMCSHLRIAEEAVSGSEYEAVFAAIHRRRLNWIPVLQMQKYHSIAEVAIELQKVAAKKAEDLKQKKTEEEAEEDLKEVVATEEEEVKKECFNGEKVTENDVNGDVEDVEDDSPTSDITDSGSHQDVHQTVVADTAHQIICHSHEDCDARSCEIKPIKGFQAKEQVKGHTVNVVKGLKLYEELLKEDEISKLLDFVAELREAGINGKLAGESFILFNKQIKGNKRELIQLGVPIFGHVKADENSNDTNNSVNIEPIPPLLESVIDHFVTWRLIPEYKRPNGCVINFFEEGEYSQPFLKPPHLEQPISTLVLSESTMAYGRILSSDNEGNFRGPLTLSLKQGSLLVMRGNSADMARHVMCPSQNKRVSITFFRIRPDTYHNHSQPNSPRNDGVMTMWQPYQMTPTPFLNGYDHSIDMMPKLGVLRPPMVMMAPPPVQPMILPSPNVMGTGGGTGVFLPWASVNSSRKHVKHLPPRAQKKRLLPLPPAASSSPAGGSTSEPVITVG
B4: AtSET (third construct co-infiltrated as competitor in Split-LUC) (domain or fragment, UniProt Q9C5X4 898-1016)
chain: B1 chain
B5: AtALKBH10B (third construct co-infiltrated as competitor in Split-LUC) (enzyme, UniProt Q9ZT92 1-569)
chain: B3 chain
B6: AtALKBH10B (Split-LUC fusion) (enzyme, UniProt Q9ZT92 1-569)
chain: B3 chain

What was measured:
[1] = target: AtCTD-NLUC (Arabidopsis); assay: split reporter; Split-LUC imaging; CLUC and NLUC fusions co-infiltrated by Agrobacterium GV3101 into N. benthamiana leaves; 500 uM luciferin, dark for 5 min
[2] = target: His-AtCTD (Arabidopsis); assay: pull-down; His-AtCTD incubated with a GST fusion protein, pulled down using anti-His antibody and magnetic beads; GST fusions detected with anti-GST antibody
[3] = target: His-AtCTD (Arabidopsis); assay: pull-down; competition: His-AtCTD with a fixed concentration of GST-AtMTA and increasing concentrations of GST-AtSET (or 1x of each added); detected with anti-GST antibody
[4] = target: AtCTD-NLUC (Arabidopsis); assay: split reporter; Split-LUC competition in N. benthamiana leaves: MTA and CTD fusions co-infiltrated with varying amounts of SET or empty vector
[5] = target: AtCTD-NLUC (Arabidopsis); assay: split reporter; Split-LUC competition in N. benthamiana leaves: MTA and CTD fusions with increasing ALKBH10B

Binder	binding [1]	binding [2]	further results
B1	binds		
B2		binds	binding [3]: binds
B3		binds	
B4			binding [4]: binds
B5			binding [5]: binds
B6	binds		

Results are given in words; binding and its absence hold for the method and conditions named. In cells and extracts the contact can be indirect. Binding calls can cover weak binding; strength is not graded here. Sequences can lack the tags named with a protein.
